Consider 31 molecules from the supplement of paper PMC12889115.

The list shows a part of the results. Values are raw readings; no control value is given beside them.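 In the initial screen, polymyxin B was used at a concentration that permeabilizes Salmonella's outer membrane but not its inner membrane. Maximum growth was set by DMSO wells with or without polymyxin B. Since plates varied, data were ranked per plate, and compounds giving the lowest OD600 advanced as hits.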

This experiment relates to Salmonella enterica serovar Typhimurium SL1344. Briefly: bacterial growth OD600 after 18 h with compound and polymyxin B; higher = more bacterial growth (less inhibition). The following applies: 50 µM, Mueller-Hinton broth.

As to `CCN1CCCC1CNC(=O)CCC1CCN(C(=O)c2n[nH]c3ccccc23)CC1` (stereo unspecified), under “polymyxin B 1 µg/mL”, the “bacterial growth OD600” value is 0.9.
Regarding `O=C(CSc1ccccn1)NC1CCCN(Cc2ccc(Cl)cc2)C1` (stereo unspecified), where the note is “polymyxin B 1 µg/mL”, the “bacterial growth OD600” value is 1.1.
With `CC(=O)Nc1cc(C(=O)N2CCC(c3ccccc3Cl)C2)cc2ncn(CCc3ccccn3)c12` (stereo unspecified), the “bacterial growth OD600” value (polymyxin B 0.75 µg/mL) worked out at 0.884.
Turning to `CCOc1ccccc1CN1CCN(Cc2cn(C)nc2-c2ccccc2)CC1CCO` (stereo unspecified), the “bacterial growth OD600” value (polymyxin B 1 µg/mL) amounted to 0.826.
Regarding `CC(=O)c1ccc(OCc2cc(C(=O)NCC(C)c3ccccc3)no2)cc1` (stereo unspecified), the “bacterial growth OD600” value (polymyxin B 1 µg/mL) was found to be 0.875.
On to `O=C(C1CCN(c2nc3nonc3nc2NCc2cccs2)CC1)N1CCCCC1`, for which the “bacterial growth OD600” value (polymyxin B 0.75 µg/mL) worked out at 0.819.
On to `COCCN1C(=O)CC(CC(=O)N2CCCC(C(=O)N3CCOCC3)C2)(c2ccccc2F)C1=O` (stereo unspecified), for which the “bacterial growth OD600” value (polymyxin B 0.75 µg/mL) was found to be 0.834.
Regarding `COc1ccc(NC2CCCN(C(=O)c3cn(C)c4ccccc34)C2)cc1` (stereo unspecified), the “bacterial growth OD600” value (polymyxin B 1 µg/mL) was determined as 0.778.
`C=C(C)CN(CC)C(=O)C1CCCN(C2CCN(C(=O)C3CC3)CC2)C1` (stereo unspecified): the “bacterial growth OD600” value (polymyxin B 0.75 µg/mL) came to 0.764.
Turning to `Cc1cc(C)n(Cc2cc(C(=O)N(C)C(C)c3nccs3)n[nH]2)n1` (stereo unspecified), the “bacterial growth OD600” value (polymyxin B 1 µg/mL) turned out to be 0.971.
`O=C(CCc1cccnc1)N1CCCC(CCc2ccc(F)c(F)c2)C1` (stereo unspecified): the “bacterial growth OD600” value (polymyxin B 0.75 µg/mL) amounted to 0.351.
For `Cc1ccc(CN2CCCC(CCC(=O)Nc3ccccc3F)C2)o1` (stereo unspecified), under “polymyxin B 1 µg/mL”, the “bacterial growth OD600” value came to 0.927.
On the same count and under the same terms, then `CCOC(=O)C1(CCc2ccccc2)CCN(C(=O)c2cccc(C)n2)CC1`, with 0.959.
Take `CC(Cc1cc(C(=O)NCCc2ccccc2)on1)c1ccccc1` (stereo unspecified): the “bacterial growth OD600” value (polymyxin B 0.75 µg/mL) is 0.6.
Consider `CN1C(=O)CC(CC(=O)N2CCCC2c2nccs2)(c2ccc(-c3ccccc3)cc2)C1=O` (stereo unspecified), for which the “bacterial growth OD600” value (polymyxin B 0.75 µg/mL) was determined as 0.005.
As for `CCOC(=O)C1(Cc2cccc(Cl)c2)CCCN(C(=O)c2cccc(OC)c2OC)C1` (stereo unspecified), the “bacterial growth OD600” value (polymyxin B 1 µg/mL) was 0.323.
In the case of `O=C(CCN1CCCCCC1=O)NC1CCCN(CCc2ccccc2)C1` (stereo unspecified), under “polymyxin B 0.75 µg/mL”, the “bacterial growth OD600” value came to 0.789.
On to `Cc1cnc(C)c(N2CCN(C(=O)c3cn(C4CCCCC4)nn3)CC2)n1`, for which the “bacterial growth OD600” value (polymyxin B 1 µg/mL) is 0.789.
In the case of `Cc1cccc(N2CCN(Cc3c[nH]nc3-c3ccc(F)cc3F)CC2)n1`, the “bacterial growth OD600” value (polymyxin B 1 µg/mL) was 0.896.
In the case of `O=C(C1CCOC1)N1CCc2[nH]nc(-c3ccccc3)c2C1` (stereo unspecified), the “bacterial growth OD600” value (polymyxin B 0.75 µg/mL) amounted to 0.842.
Same read-out and setting: then `CCCCNC1CCN(c2ccc(C(=O)NC(C)c3ccccc3)cc2)CC1` (stereo unspecified), with 0.877; and `O=C(c1c(F)ccc(F)c1F)N1CCCC(Nc2cccc(F)c2)C1` (stereo unspecified), with 0.748.
Consider `CCOC(=O)C1(CCc2ccccc2)CCN(C(=O)CCc2c(C)noc2C)CC1`, for which, for the setting “polymyxin B 1 µg/mL”, the “bacterial growth OD600” value came out at 0.027.
With `Cc1ccc(-c2ccc(C(=O)N3CCC4(CC3)CC4C(=O)N3CCN(c4ccccn4)CC3)cc2)cc1` (stereo unspecified), under “polymyxin B 0.75 µg/mL”, the “bacterial growth OD600” value is 0.011.
Regarding `COc1ccc(-c2ccccc2NC(=O)C2CCCN2S(C)(=O)=O)cc1` (stereo unspecified), the “bacterial growth OD600” value (polymyxin B 1 µg/mL) was 0.957.
Same read-out and setting: the same measure for `CCC(CC)N1CCC(N2CCC(C(=O)NCc3cccnc3)CC2)CC1`: 1.03.
Still for that read-out and setting: then `Cc1ccc(NC2CCCN(C(=O)c3ccccc3)C2)cc1C` (stereo unspecified), with 0.852; and `CN(Cc1nc(-c2ccccc2)no1)CC1Cc2ccccc2O1` (stereo unspecified), with 1.08.
Consider `CCc1ocnc1C(=O)N1CCC(C2CCN(CCc3ccccc3)C2)CC1` (stereo unspecified), for which the “bacterial growth OD600” value (polymyxin B 0.75 µg/mL) was 0.007.
Regarding `CCC1CN(CCC(=O)N2CCN(Cc3csc(C)n3)CC2)Cc2cc(OC)ccc2O1` (stereo unspecified), the “bacterial growth OD600” value (polymyxin B 0.75 µg/mL) turned out to be 0.803.
As for `COc1cccc(C(=O)N2CCOc3c(cc(-c4ccccc4C)cc3OC3CCOC3)C2)c1` (stereo unspecified), the “bacterial growth OD600” value (polymyxin B 0.75 µg/mL) is 0.929.
